Data as given in PubChem BioAssay (NCATS).
“And” between values parts separate entries of the source, which are not always exact repeats. Identical values can stand only once. The list shows a part of the results. Shown are side measurements of this screen, not its main read-out; they come without a call. For some assays here: Compounds called inactive in the main read-out are mostly missing here. For some assays here: The note in brackets gives the kind of curve behind each potency; many fits are weak.

Assays:
[1] = A High-Content qHTS Against Drug Library for the Identification of Small Molecules that Inhibit DYT1 Early Onset Primary Dystonia-Associated Cell Pathology (AID 1645839); settings: HEK293 Flp-In EGFP-delE TorsinA, punctate imaging, 48 h; measured here: cell count cytotoxicity
In short: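 High-content imaging quantified EGFP-TorsinA mislocalization in HEK293-derived cells inducibly expressing DYT1 mutant torsinA, after 48 h exposure to compound given together with tetracycline induction. Cell count served as a toxicity channel alongside %pathology.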

[2] = qHTS assay for small molecule antagonists of androgen receptor signaling (AID 588516); settings: AR-UAS-bla HEK293, beta-lactamase ratio, antagonist mode, 16 h
In short: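 Cells were plated and incubated 5 h, compounds added in titration, then R1881 (10 nM final) as agonist. After 16 h at 37 C, CCF4 substrate was loaded for 2 h at room temperature and fluorescence measured.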

[3] = qHTS Assay for Modulators of Human Peripheral Myelin Protein 22 (PMP22) Expression/Activity (AID 1967); settings: Cell-based PMP22 reporter, dual-color luciferase ratio; measured here: red reporter channel AC50; EF-alpha promoter control reporter in MSC80 mouse Schwann cells
In short: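 MSC80 mouse Schwann cells stably carrying Pmp22 promoter–green click beetle luciferase plus EF-alpha–red luciferase control were dosed for 24h at 37 °C. Dual-colour luminescence was filter-overlap corrected; %Activity came from green/red ratio versus untreated cells.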

[4] = qHTS assay for small molecule antagonists of peroxisome proliferator-activated receptor delta signaling (AID 588535); settings: HEK293T PPARd-UAS-bla, beta-lactamase FRET ratio, 18 h; 460 nm channel;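 also: cells co-treated with a PPAR-delta agonist as stimulator during compound exposure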
In short: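 Antagonist-mode qHTS using GeneBLAzer PPAR-delta-UAS-bla HEK293T cells; compound exposure 18 hrs at 37 C over a titration. Ratiometric CCF4 fluorescence at 460/530 nm; concentration-response points fitted to the Hill equation.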

[5] = qHTS assay for small molecule antagonists of vitamin D receptor signaling (AID 588541); settings: HEK293T VDR-UAS-bla, beta-lactamase ratio, antagonist mode; measured here: W460 blue channel (cell viability)
[6] = qHTS assay for small molecule agonists of retinoid X receptor alpha signaling (AID 588544); settings: HEK293T RXRa-UAS-bla, beta-lactamase reporter, 18 h; 530 nm emission
[7] = qHTS assay for small molecule antagonists of retinoid X receptor alpha signaling (AID 588546); settings: HEK293T RXRa-UAS-bla, beta-lactamase ratio, antagonist mode; measured here: W530 green channel, cytotoxicity proxy;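 also: cells stimulated with 9-cis-retinoic acid as agonist; % is scaled to controls: 0 for no effect and ±100 for the full control effect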
In short: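 Beta-lactamase reporter inhibition, read as CCF4 fluorescence ratio (ex 405, em 460/530 nm) after 2 h at RT. HEK293T UAS-bla cells, 2500/well, were stimulated with 9-cis-RA at 500 or 100 nM final alongside test compound for 18 h at 37 C.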

[8] = qHTS assay for small molecule antagonists of glucocorticoid receptor signaling (AID 588533); settings: HeLa MMTV-bla, GRE beta-lactamase ratio, antagonist mode, 18 h; measured here: W530 channel AC50
[9] = qHTS assay for small molecule antagonists of peroxisome proliferator-activated receptor gamma signaling (AID 588537); settings: HEK293 PPARg-UAS-bla, beta-lactamase ratio, antagonist mode; measured here: W460 blue channel
In short: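 Cell-based beta-lactamase assay; GW9662 served as the antagonist control. Stimulation used rosiglitazone, final 50 nM, 16 h, 37 C.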

[10] = S16 Schwann cell PMP22 intronic element beta-lactamase assay (AID 624044); settings: S16 rat Schwann cells, PMP22 element beta-lactamase FRET, 24 h; measured here: 460 nm blue channel
In short: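 Beta-lactamase reporter under a PMP22 intronic regulatory element in stable S16 rat Schwann cells; 24 h compound exposure. 460 nm blue signal normalized between DMSO (0%) and potassium clavulanate, with 535 nm FRET tracking viability; curves classed by r2 and response.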

[11] = qHTS drug screen for cell cycle checkpoint inhibitors in PARPi-resistant BRCA-mutant ovarian cancer cell lines. (AID 1963452); settings: PEO1/OlaR viability, CellTiter-Glo luminescence, 96 h
In short: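 PEO1, PEO4 and PEO1/OlaR ovarian cancer cells, 600 per well, exposed 96 h at 37C to a dilution series. Viability read by CellTiter-Glo luminescence, normalized to DMSO and empty wells; activity summarized as Z-AUC.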

[12] = qHTS for identification of novel therapeutic agents for treatment of microphthalmiaassociated transcription factor (MiT) renal cell carcinoma (RCC) (AID 1963991); settings: TFE3-RCC viability, CellTiter-Glo, 48 h
In short: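 UOK109/UOK124/UOK145 (TFE3 fusions, three partners); 500 cells/well; MIPE v4.0, 1912 cpds, 11 conc.; 48 h, 37 C; CellTiter-Glo, 15 min RT; lum. Norm.: DMSO 100%, empty 0%.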

[13] = measured here: W460 blue channel fit
[14] = measured here: W530 green channel, cytotoxicity/artifact

## CO[C@]12CC[C@@]3(C[C@@H]1[C@](C)(O)C(C)(C)C)[C@@H]1Cc4ccc(O)c5c4[C@@]3(CCN1CC1CC1)[C@H]2O5
[1]
  AC50: 56.2 µM [falling, single point]

## CCc1cc(OC)c(C[C@H](C)N)cc1OC
[1]
  AC50: 70.8 µM [falling, single point]

## CC(=O)[C@H]1CC[C@H]2[C@@H]3CC[C@H]4C[C@](C)(O)CC[C@]4(C)[C@H]3CC[C@]12C
[1]
  AC50: 35.5 µM [rising, single point]

## CC(C)=CCN1CC[C@@]2(C)c3cc(O)ccc3C[C@@H]1[C@@H]2C
[1]
  AC50: 31.6 µM [falling, single point]

## COc1ccc2c3c1O[C@H]1[C@@H](O)C=C[C@H]4[C@@H](C2)N(C)CC[C@@]341
[1]
  AC50: 31.6 µM [falling, single point]

## Cc1ccc([N+](=O)[O-])[c]2c1[O][Hg]2
[1]
  AC50: 1.26 µM [falling, full curve, poor fit]

## CC(C)(C)NCC(O)c1cc(Cl)c(N)c(C(F)(F)F)c1 (stereo not given)
[1]
  AC50: 1.78 µM [falling, full curve, poor fit]

## CC(=O)OC1(c2ccccc2)CCN(CCc2ccccc2)CC1
[1]
  AC50: 1.41 µM [falling, full curve, poor fit]

## O=c1c(C2CC(c3ccc(-c4ccc(Br)cc4)cc3)Cc3ccccc32)c(O)sc2ccccc12 (stereo not given)
[1]
  AC50: 12.6 µM [falling, partial curve, poor fit]

## Nc1ccc([N+](=O)[O-])cc1
[2]; [13]
  AC50: 50.1 µM [falling, partial curve, poor fit]
[1]
  AC50: 14.1 µM [falling, partial curve]

## COc1ccc2c(c1OC)C(=O)O[C@H]2[C@@H]1c2cc3c(cc2CCN1C)OCO3
[3]
  AC50: 84.9 µM [falling, single point]
[1]
  AC50: 0.891 µM [falling, full curve, poor fit]

## CCC(=O)C(CC(C)N(C)C)(c1ccccc1)c1ccccc1 (stereo not given)
[1]
  AC50: 50.1 µM [falling, single point]

## O=C(CCl)c1ccc(Cl)cc1Cl
[2]; [13]
  AC50: 39.8 µM [falling, partial curve]
[2]; [14]
  AC50: 12.6 µM [rising, full curve, poor fit]
[4]
  max response: -100%
[5]
  AC50: 17.8 µM [falling, full curve, poor fit]
[6]
  max response: 103%
[7]
  max response: 74.2%
[1]
  AC50: 3.55 µM [falling, single point]

## O=C(Nc1ccccc1-c1ccc(Cl)cc1)c1cccnc1Cl
[4]
  max response: 110%
[6]
  max response: 4.55%
[1]
  AC50: 4.47 µM [rising, full curve, poor fit]

## CC(C)(C)CC(C)(C)c1ccc(O)cc1
[8]
  AC50: 50.1 µM [falling, single point]
[7]
  max response: -32.8%
[1]
  AC50: 39.8 µM [falling, single point]

## CC1(C)CC/C(=C/c2ccc(Cl)cc2)C1(O)Cn1cncn1 (stereo not given)
[1]
  AC50: 35.5 µM [rising, partial curve, poor fit]

## NCCc1cc(O)c(O)cc1O
[1]
  AC50: 11.2 µM [falling, partial curve, poor fit]

## CC(CC(C#N)(c1ccccc1)c1ccccc1)N(C)C (stereo not given)
[1]
  AC50: 31.6 µM [falling, single point]

## CCN[C@H](C)Cc1cccc(C(F)(F)F)c1
[1]
  AC50: 56.2 µM [falling, single point]

## C[C@H]1O[C@@H](O[C@H]2[C@@H](O)C[C@H](O[C@H]3[C@@H](O)C[C@H](O[C@H]4CC[C@@]5(C)[C@H](CC[C@@H]6[C@@H]5CC[C@]5(C)[C@@H](C7=CC(=O)OC7)CC[C@]65O)C4)O[C@@H]3C)O[C@@H]2C)C[C@H](O)[C@@H]1O
[2]; [13]
  AC50: 0.891 µM [falling, full curve]
[4]
  max response: 98.8%
[6]
  max response: 38.7%
[7]
  max response: 46.8%
[1]
  AC50: 2.82 µM [falling, full curve]

## CCCN(CCC)c1c([N+](=O)[O-])cc(S(N)(=O)=O)cc1[N+](=O)[O-]
[1]
  AC50: 1.12 µM [falling, full curve, poor fit]

## CC(C)NC(C)C
[4]
  max response: 52.3%
[9]
  AC50: 70.8 µM [rising, single point]
[10]
  AC50: 1.26 µM [falling, full curve, poor fit]
[1]
  AC50: 0.891 µM [rising, full curve, poor fit]

## Cc1nc2ccccc2c(=O)n1-c1ccccc1Cl
[1]
  AC50: 28.2 µM [falling, single point]

## CNC(C)Cc1ccccc1OC (stereo not given)
[1]
  AC50: 35.5 µM [falling, single point]

## C[C@]12CC[C@@H]3c4ccc(OC(=O)N(CCCl)CCCl)cc4CC[C@H]3[C@@H]1CC[C@@H]2O
[1]
  AC50: 10 µM [falling, partial curve, poor fit]

## C[C@@H]1O[C@@H](O[C@H]2C[C@@H](O)[C@]3(CO)[C@H]4[C@H](O)C[C@]5(C)[C@@H](C6=CC(=O)OC6)CC[C@]5(O)[C@@H]4CC[C@]3(O)C2)[C@H](O)[C@H](O)[C@H]1O
[3]
  AC50: 84.9 µM [falling, single point]
[6]
  max response: 37.1%
[7]
  max response: 50%
[1]
  AC50: 2.51 µM [falling, partial curve, poor fit]
[11]; measured here: PEO1 parental viability
  AC50: 0.11 µM [falling, full curve]
[11]; measured here: PEO4 viability
  AC50: 0.049 µM [falling, full curve]
[12]; measured here: UOK124 cell viability
  AC50: 0.0469 µM [falling, full curve]
[12]; measured here: UOK145 cell viability
  AC50: 0.0235 µM [falling, full curve]

## O=[N+]([O-])c1c2ccccc2cc2ccccc12
[9]
  AC50: 11.2 µM [falling, partial curve, poor fit]
[7]
  max response: -3.92%
[1]
  AC50: 28.2 µM [falling, partial curve, poor fit]

## CN1C(=S)CN=C(c2ccccc2)c2cc(Cl)ccc21
[1]
  AC50: 25.1 µM [falling, single point]

## CC1N=C(N)OC1c1ccccc1 (stereo not given)
[1]
  AC50: 35.5 µM [falling, single point]

## CCOC(=O)CC(SP(=S)(OC)OC)C(=O)OCC (stereo not given)
[4]
  max response: 45.8% and 63.4%
[9]
  AC50: 0.0447 µM [falling, full curve, poor fit]
[6]
  max response: 20% and 24.4%
[10]
  AC50: 8.91 µM [falling, partial curve, poor fit]
[1]
  AC50: 28.2 µM [rising, partial curve]

## CN(C)CCc1c[nH]c2ccccc12
[1]
  AC50: 112 µM [falling, single point]

## CCCCCCCCCCCC[N+](C)(C)CCOc1ccccc1
[8]
  AC50: 39.8 µM [falling, partial curve]
[4]
  max response: 102%
[6]
  max response: 14.3%
[7]
  max response: -35.1%
[1]
  AC50: 35.5 µM [falling, single point]

## CCC(=O)O[C@H]1CC[C@H]2[C@@H]3CCC4=CC(=O)CC[C@]4(C)[C@H]3CC[C@]12C
[2]; [14]
  AC50: 44.7 µM [rising, single point]
[5]
  AC50: 31.6 µM [rising, partial curve, poor fit]
[6]
  max response: 24.2%
[1]
  AC50: 11.2 µM [falling, partial curve, poor fit]

## c1ccc(N2CCNCC2)cc1
[1]
  AC50: 2.51 µM [falling, partial curve, poor fit]

## Nc1ccc(Cl)cc1N
[2]; [14]
  AC50: 7.94 µM [rising, partial curve, poor fit]
[9]
  AC50: 50.1 µM [rising, single point]
[6]
  max response: 34.9%
[1]
  AC50: 8.91 µM [falling, full curve]
